Laboratory results as given in article PMC8897400.
These are yes or no findings as the source states them, for the method shown. For some of these results: Binding seen in cells or lysates may run through a third protein. Some binding calls cover weakened binding; strength is not graded here.

Protein sequences, listed by entry. Tags and fused reporters are not part of them. Lines headed by an entry give the natural chain unless they say otherwise; changes in a name come on top.
UniProt O95373: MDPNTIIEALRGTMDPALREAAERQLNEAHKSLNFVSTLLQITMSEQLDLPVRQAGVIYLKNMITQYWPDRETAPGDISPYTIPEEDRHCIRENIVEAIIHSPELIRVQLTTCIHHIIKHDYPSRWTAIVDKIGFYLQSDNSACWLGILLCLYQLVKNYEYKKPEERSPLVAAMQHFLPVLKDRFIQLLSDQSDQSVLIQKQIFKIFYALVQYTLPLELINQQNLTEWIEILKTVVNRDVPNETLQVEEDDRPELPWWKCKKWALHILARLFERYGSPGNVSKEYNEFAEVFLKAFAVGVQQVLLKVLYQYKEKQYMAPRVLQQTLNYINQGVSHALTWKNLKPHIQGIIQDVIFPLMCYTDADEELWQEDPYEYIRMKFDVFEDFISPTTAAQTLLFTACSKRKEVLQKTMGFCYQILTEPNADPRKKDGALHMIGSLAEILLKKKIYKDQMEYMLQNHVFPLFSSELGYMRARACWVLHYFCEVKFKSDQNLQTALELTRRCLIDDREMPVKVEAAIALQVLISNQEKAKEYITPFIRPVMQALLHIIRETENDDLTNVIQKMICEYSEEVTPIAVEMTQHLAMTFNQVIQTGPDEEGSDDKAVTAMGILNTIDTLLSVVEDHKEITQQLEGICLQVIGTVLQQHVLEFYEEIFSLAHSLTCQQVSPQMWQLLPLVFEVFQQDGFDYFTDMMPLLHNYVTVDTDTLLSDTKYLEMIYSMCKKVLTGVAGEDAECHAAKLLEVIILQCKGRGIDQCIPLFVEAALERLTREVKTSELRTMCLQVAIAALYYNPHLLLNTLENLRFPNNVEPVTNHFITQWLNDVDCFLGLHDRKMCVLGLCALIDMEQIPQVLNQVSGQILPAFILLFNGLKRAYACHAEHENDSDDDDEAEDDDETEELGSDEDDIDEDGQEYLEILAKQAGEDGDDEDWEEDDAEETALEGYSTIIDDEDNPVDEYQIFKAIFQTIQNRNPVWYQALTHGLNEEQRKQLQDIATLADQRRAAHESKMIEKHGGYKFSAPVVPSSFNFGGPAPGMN
UniProt P46937: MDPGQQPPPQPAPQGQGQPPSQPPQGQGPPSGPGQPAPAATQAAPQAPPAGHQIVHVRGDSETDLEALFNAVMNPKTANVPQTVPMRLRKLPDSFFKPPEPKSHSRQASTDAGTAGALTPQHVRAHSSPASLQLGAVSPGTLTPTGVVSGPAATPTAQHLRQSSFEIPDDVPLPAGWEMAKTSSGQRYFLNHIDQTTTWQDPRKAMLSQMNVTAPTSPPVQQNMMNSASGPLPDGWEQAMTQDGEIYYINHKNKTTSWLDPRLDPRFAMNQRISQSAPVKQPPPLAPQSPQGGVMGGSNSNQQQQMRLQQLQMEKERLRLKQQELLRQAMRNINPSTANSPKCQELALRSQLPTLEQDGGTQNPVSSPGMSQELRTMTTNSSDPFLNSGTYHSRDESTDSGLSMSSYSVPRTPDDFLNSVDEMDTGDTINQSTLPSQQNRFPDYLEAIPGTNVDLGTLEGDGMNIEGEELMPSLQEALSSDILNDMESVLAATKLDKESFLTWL
UniProt P84022: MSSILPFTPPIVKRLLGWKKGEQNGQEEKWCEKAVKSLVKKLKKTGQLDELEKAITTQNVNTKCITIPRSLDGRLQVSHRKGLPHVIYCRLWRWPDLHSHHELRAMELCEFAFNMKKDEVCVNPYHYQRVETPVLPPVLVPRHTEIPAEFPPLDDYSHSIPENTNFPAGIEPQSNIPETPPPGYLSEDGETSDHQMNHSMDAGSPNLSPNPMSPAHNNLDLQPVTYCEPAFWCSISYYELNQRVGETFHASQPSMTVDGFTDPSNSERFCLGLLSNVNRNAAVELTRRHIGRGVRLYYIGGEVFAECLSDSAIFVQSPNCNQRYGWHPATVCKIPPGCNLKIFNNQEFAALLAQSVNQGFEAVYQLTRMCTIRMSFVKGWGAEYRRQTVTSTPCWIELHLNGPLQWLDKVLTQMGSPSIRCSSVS

Assays:
GST-Imp7 = GST-Imp7 (UniProt O95373); experiment: pull-down; GST-Imp7 or GST on Sepharose beads mixed with GFP8Q, GFP8Q-YAP or its mutants in IP buffer, 4 °C, 1.5 h; washed; SDS-PAGE, Coomassie; both purified
[1] = molecular target: endogenous Importin-7 (human (endogenous in RPE-1)) (UniProt O95373); experiment: proximity ligation; in situ PLA of endogenous Smad3 and Imp7 in RPE-1 cells; low or high confluence, with or without TGFβ, YAP, Imp7 or Smad3 siRNAs, EYFP-YAP overexpression, XMU-MP-1
[2] = molecular target: endogenous Importin-7 (human (endogenous in RPE-1)) (UniProt O95373); experiment: condition: only cells at high confluence, without XMU-MP-1; co-IP; anti-Imp7 immunoprecipitation from lysates of cells at high confluence, vehicle
[3] = molecular target: endogenous Importin-7 (human (endogenous in RPE-1)) (UniProt O95373); experiment: co-IP; anti-Imp7 immunoprecipitation from RPE-1 lysates, blot for YAP; low confluence; also high confluence with XMU-MP-1 (6 µM, 16 h) and low confluence with Cyt D plus XMU-MP-1; IP buffer 50 mM Tris-HCl pH 8.0, 100 mM NaCl, 1% Triton X-100
[4] = molecular target: endogenous Importin-7 (human (endogenous in RPE-1)) (UniProt O95373); experiment: condition: only cells treated with blebbistatin (10 µM, 1 h); proximity ligation; in situ PLA of endogenous YAP and Imp7 in RPE-1 cells treated with blebbistatin (10 µM, 1 h)
[5] = molecular target: endogenous Importin-7 (human (endogenous in RPE-1)) (UniProt O95373); experiment: condition: only cells treated with Cyt D (1 µM, 1 h); proximity ligation; in situ PLA of endogenous YAP and Imp7 in RPE-1 cells treated with Cyt D (1 µM, 1 h)
[6] = molecular target: endogenous Importin-7 (human (endogenous in RPE-1)) (UniProt O95373); experiment: condition: only cells treated with Cyt D (1 µM, 1 h), without XMU-MP-1; co-IP; anti-Imp7 immunoprecipitation from lysates of cells at low confluence treated with Cyt D (1 µM, 1 h), without XMU-MP-1
[7] = molecular target: endogenous Importin-7 (human (endogenous in RPE-1)) (UniProt O95373); experiment: proximity ligation; in situ PLA (Duolink) of endogenous YAP (antibody 63.7) and Imp7 (rabbit antibody) in fixed, permeabilised RPE-1 cells; also after knock-down of Imp7, YAP or Smad3
[8] = molecular target: endogenous Importin-7 (human (endogenous in RPE-1)) (UniProt O95373); experiment: condition: only cells treated with Y27632 (25 µM, 1 h); proximity ligation; in situ PLA of endogenous YAP and Imp7 in RPE-1 cells treated with Y27632 (25 µM, 1 h)
[9] = molecular target: endogenous Importin-7 (human (endogenous in RPE-1)) (UniProt O95373); experiment: co-IP; YAP wild type or mutants (EYFP-YAP forms, YAP S5A) expressed in cells, co-immunoprecipitation with endogenous Imp7 (Supplementary Fig. 7a-d); cell line and precipitating antibody not told in the text shown

GFP8Q-YAP (from UniProt P46937 1-504)
binding (GST-Imp7): binds

endogenous Smad3 (from UniProt P84022 1-425)
binding [1]: binds

endogenous YAP (from UniProt P46937 1-504)
binding [2]: no binding | binding [3]: binds | binding [4]: no binding | binding [5]: no binding | binding [6]: no binding | binding [7]: binds | binding [8]: no binding

EYFP-YAP (from UniProt P46937-1 1-504)
binding [9]: binds
